The results in this text go back to the supplement of paper PMC10338343.

± gives the standard deviation. The entries are a selection whose mix differs from that of the whole data set. Many entries were measured with a wide error.

The first experiment relates to MIWI (PIWIL1) piRISC loaded with L1MC piRNA (30 nt). Briefly: pre-steady-state target cleavage rate (min^-1); MIWI and MILI are mouse PIWI proteins and EfPiwi is from a freshwater sponge; tags in brackets are library labels; higher = faster piRNA-guided slicing of the target. The conditions noted are these: guide: L1MC piRNA 5'p-UAACUAAAUACUAUGCAAGCUGUAGGUCCU; auxiliary factor: 500 nM mouse GTSF1. The essentials: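 Cleave-'n-Seq reactions paired 0.1 nM transcribed, DNA-blocked target RNA library with 1 nM active affinity-purified piRISC holding one synthetic guide, plus or minus 500 nM GTSF1 partner protein, in HEPES–potassium acetate buffer at 33 °C for 0–8 or 0–960 min. After sequencing of uncleaved targets and normalisation to depth and weakly complementary targets, the pre-steady-state cleavage rate was taken from a burst-and-steady-state fit. Three trials were pooled, and k3 was capped at 0.0001 min^-1.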
For UCCUGGAUGUCGAACGUAAGUUUUUAGAUA, the “pre-steady-state target cleavage rate” value was 0.00014 ± 0.029.

Consider UCGACCUACAGCUUGAAUAGUAUUUAGUUA, for which the “pre-steady-state target cleavage rate” value came to 1.48 ± 0.05.

Turning to UCGACCUAGCAGCUUGCAUAGUAUUUAGUUA, the “pre-steady-state target cleavage rate” value is 1.34 ± 0.058.

Take UCCUGGAUGUCGAACGUAUGUAUUUAAUUA: the “pre-steady-state target cleavage rate” value worked out at 0.000227 ± 0.022.

In the case of UGUGACCUACAGCUUGCAUAGUAUUUAGUUA, the “pre-steady-state target cleavage rate” value came to 1.45 ± 0.063.

Staying with this experiment, now noted: guide: L1MC piRNA 5'p-UAACUAAAUACUAUGCAAGCUGUAGGUCCU; auxiliary factor: none (no GTSF1).
UCCACCUACAGCUUGCAUAGUAUAAUCAAA: the “pre-steady-state target cleavage rate” value was found to be 0.00075 ± 0.009.

Turning to UGGACCUACAGCUACGAUAGUAUUUAGUAA, the “pre-steady-state target cleavage rate” value was 0.000522 ± 0.0079.

Turning to UCCACCUACAGCUUGCAAAGUAUUUUCAAA, the “pre-steady-state target cleavage rate” value stood at 0.00198 ± 0.0039.

Regarding AGGACCUACAGCUACGAUAGUAUUUUCAAA, the “pre-steady-state target cleavage rate” value was 0.000688 ± 0.0094.

With “UCCUGGAACAGCUUGCAUAGUAUAAUCAAA [g8:g23:cont:t1A]”, the “pre-steady-state target cleavage rate” value is 0.00229 ± 0.0031.

Take UCGACCUACAGCUUGGAUAGUAUUUUCAAA: the “pre-steady-state target cleavage rate” value came to 0.00113 ± 0.0037.

For the sequence UGGACCUACAGCUUGCAUAGUAUAAUCAAA, the “pre-steady-state target cleavage rate” value was 0.000974 ± 0.0055.

Take UGGACCUACAGCUUGCAAUGUAUUUAGAAA: the “pre-steady-state target cleavage rate” value worked out at 0.00156 ± 0.0031.

With “UCGACCUACAGCUUGCAUAGUUAAAUCAAA [g10:g28:cont:t1A]”, the “pre-steady-state target cleavage rate” value came out at 0.000905 ± 0.0089.

On to AGGACCUACAGCAAGCAUAGUAUUUUCAAA, for which the “pre-steady-state target cleavage rate” value is 0.001 ± 0.0065.

With UCCACCUACAGCUUGCAUACAUUUUAGAAA, the “pre-steady-state target cleavage rate” value was 0.000272 ± 0.011.

With AGGACCUACAGCUUGCAUAGAUAUUUCAAA, the “pre-steady-state target cleavage rate” value is 0.000794 ± 0.011.

Regarding UGGACCUACAGCUUCGUUAGUAUUUAGUUA, the “pre-steady-state target cleavage rate” value was determined as 0.00139 ± 0.0023.

AGGACCUACAGCUUGCAUACAAUUUAGAAA: the “pre-steady-state target cleavage rate” value is 0.00102 ± 0.0069.

As to UCCACCUAGUCCUUGCAUAGUAUUUAGAAA, the “pre-steady-state target cleavage rate” value amounted to 0.00186 ± 0.0024.

For the sequence UCCACCUACAGCUUCCAUAGUAUUUUCAAA, the “pre-steady-state target cleavage rate” value was 0.000647 ± 0.011.

For the sequence UCCUGGAUGUCGAACGUUACAUUUUAGUUA, the “pre-steady-state target cleavage rate” value came out at 0.000377 ± 0.015.

With UCCACCUACAGCUUGCAUAGAUUUUAGUAA, the “pre-steady-state target cleavage rate” value was found to be 0.00144 ± 0.0034.

For the sequence UCCACCUACAGCUUGCAUAGUAUUAUCUAA, the “pre-steady-state target cleavage rate” value came out at 0.00144 ± 0.0051.

For the sequence AGGACCUACAGCUUGCAUACUAUUUUCAAA, the “pre-steady-state target cleavage rate” value was 0.00199 ± 0.0041.

Take UCCUGGAUGUCGAACGAUAGUAUUUUCUUA: the “pre-steady-state target cleavage rate” value stood at 0.000163 ± 0.029.

AGGACCUACAGCUUCCAUAGUAUUUACUUA: the “pre-steady-state target cleavage rate” value came out at 0.00112 ± 0.0053.

Turning to UCCACCUAGUCCUUGCAUAGUAUUUUCAAA, the “pre-steady-state target cleavage rate” value amounted to 0.00117 ± 0.0032.

Consider AGGACCUACAGCUAGCAUAGUAUUUACAAA, for which the “pre-steady-state target cleavage rate” value worked out at 0.00318 ± 0.0041.

Take AGGACCUACAGCUUGCAGUAGUAUUUAGUUA: the “pre-steady-state target cleavage rate” value worked out at 0.000741 ± 0.013.

Consider UCGACCUACAGCUUGCAUUCAAUUUAGUAA, for which the “pre-steady-state target cleavage rate” value worked out at 0.000474 ± 0.011.

UCCACCUACAGCUUGCAUAGUUAAUAGAAA: the “pre-steady-state target cleavage rate” value was found to be 0.000329 ± 0.0081.

Turning to UCGACCUACAGCUUGCAUACAUUUUAGAAA, the “pre-steady-state target cleavage rate” value was 0.000823 ± 0.0092.

Take “UCCUGGAACAGCUUGCAUAGUAAAAUCAAA [g9:g23:cont:t1A]”: the “pre-steady-state target cleavage rate” value turned out to be 0.00135 ± 0.0055.

On to AGGACCUACAGCUUGGUUAGUAUUUUCAAA, for which the “pre-steady-state target cleavage rate” value turned out to be 0.000535 ± 0.0098.

Take UCGACCUACUCGUUGCAUAGUAUUUACAAA: the “pre-steady-state target cleavage rate” value turned out to be 0.00163 ± 0.0027.

As to AGGACCUACAGGAUGCAUAGUAUUUAGAAA, the “pre-steady-state target cleavage rate” value was found to be 0.00251 ± 0.0026.

In the case of UGGACCUACAGCUUGCAUAGUUAUUAGAAA, the “pre-steady-state target cleavage rate” value was 0.00123 ± 0.0054.

Consider UCCACCUACAGCUUGCUAUGUAUUUUCAAA, for which the “pre-steady-state target cleavage rate” value stood at 0.000184 ± 0.015.
